Several values for one entry are separate records, joined by “and”; a condition that tells them apart may be missing. Identical values can stand only once. This is one part of the list. The main result of the screen is listed elsewhere. These columns were measured beside it and carry no call. Compounds called inactive in the main read-out are mostly missing here. Words in brackets tell the shape of the fitted curve; partial curves, single points and poor fits give uncertain potencies.
Test: qHTS Assay for Modulators of Lamin A Splicing
Settings: HeLa LMNA splicing GFP/RFP minigene ratio, 48 h
Method in brief: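 S3 HeLa cells stably expressing lamin A-EGFP splicing minigene plus DsRed2, 600 cells/well, 48 h compound exposure at 37C. Laser-scanning cytometry; analysed as GFP (500-530 nm)/RFP (575-640 nm) total intensity ratio; 0.5% DMSO vehicle.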

[1] = measured here: GFP splicing reporter channel
[2] = measured here: RFP viability control channel

| SMILES | AC50 [1] | AC50 [2] |
| --- | --- | --- |
| COc1ccc(Cl)cc1NC(=O)CSc1nc2c([nH]c3ccccc32)c(=O)n1-c1ccccc1 | 31.6 µM [falling, partial curve, poor fit] | 11.2 µM [falling, partial curve] |
| Cc1cccc(-c2nnc(NC(=O)c3ccc(Cl)cc3)o2)c1 |  | 1.78 µM [rising, partial curve, poor fit] |
| O=C(CSc1nnc(-c2ccccc2Br)o1)N1CCN(C(=O)c2ccco2)CC1 | 4.47 µM [rising, partial curve, poor fit] |  |
| Cc1ccc(S(=O)(=O)N2CCN(c3ccc(C(=O)N4CCOCC4)cc3[N+](=O)[O-])CC2)cc1 | 12.6 µM [rising, partial curve] | 35.5 µM [rising, single point] |
| CCC(=O)N1CCN(c2ccccc2NC(=S)NC(=O)c2cccc([N+](=O)[O-])c2)CC1 | 1 µM [falling, full curve, poor fit] |  |
| CCC1=NN(C(=O)c2cccc(Br)c2)C(O)(c2ccc(Br)cc2)C1 (configuration not stated) |  | 25.1 µM [rising, single point] |
| Cc1nn(C(C)C(=O)NCc2ccco2)c(C)c1[N+](=O)[O-] (configuration not stated) | 0.562 µM [rising, single point] |  |
| COc1ccc(CN2CCNC(=O)C2CC(=O)NCCSc2nccn2C)c(OC)c1 (configuration not stated) |  | 0.2 µM [falling, full curve] |
| C/C(=N\NC(=S)NC1CCCCC1)c1ccccc1 |  | 6.31 µM [rising, full curve] |
| O=C(NCc1ccc(F)cc1)c1cnc(N2CCOCC2)c2ccccc12 | 0.282 µM [rising, partial curve] |  |
| COc1ccc(Cn2cc(C(=O)c3ccccc3)c(=O)c3cc(OC)ccc32)cc1 |  | 1.58 µM [rising, partial curve, poor fit] |
| CC1CCCCN1C(=O)c1ccc(NC(=O)c2ccccc2Cl)cc1 (configuration not stated) | 0.224 µM [falling, full curve] |  |
| Cc1ccc(C(=O)NNC2=Nc3cccc4cccc2c34)cc1 |  | 7.94 µM [rising, partial curve] |
| O=C(NNc1nc(-c2ccc(Br)cc2)cs1)c1ccco1 |  | 1.26 µM [falling, single point] |
| COc1ccc(CN2CCn3ncc(C(=O)Nc4ccccc4)c3C2=O)cc1 |  | 0.316 µM [falling, full curve, poor fit] |
| CCOC(=O)C1=C(CN2CCN(c3ccc(F)cc3)CC2)NC(=O)NC1c1cccs1 (configuration not stated) | 35.5 µM [rising, single point] | 14.1 µM [rising, single point] |
| COc1cc2c(cc1OC)-c1cc3ccc4c(c3c[n+]1CC2)OCO4 | 6.31 µM [rising, full curve] | 10 µM [rising, partial curve] |
| CCOc1ccc(/C=C2/SC(=O)NC2=S)cc1 | 35.5 µM [falling, single point] | 35.5 µM [falling, single point] |
| CN(/N=C/c1cccnc1)C1=NS(=O)(=O)c2ccccc21 | 14.1 µM [falling, partial curve] | 7.94 µM [falling, partial curve, poor fit] |
| CC(=O)Nc1ccc(NC(=O)C2CCN(S(=O)(=O)c3ccc4c(c3)CCCC(=O)N4)CC2)cc1 | 0.00316 µM [rising, full curve, poor fit] | 0.0447 µM [rising, full curve, poor fit] |
| CCN1CCN(Cc2ccc3c(c2)Cc2ccccc2-3)CC1 | 10 µM [rising, partial curve] |  |
| Cn1nc(CC(=O)NCc2ccc(F)cc2)c2ccccc2c1=O |  | 11.2 µM [rising, partial curve] |
| O=C(CN1CCN(Cc2ccc(Cl)cc2)CC1)N/N=C/C=C/c1ccccc1[N+](=O)[O-] | 10 µM [rising, partial curve] | 14.1 µM [rising, partial curve] |
| COc1ccc(Sc2ncnc3onc(C)c23)cc1 | 0.00708 µM [falling, full curve, poor fit] |  |
| Cc1ccc(-c2nnc(Oc3cccc(C)c3)c3ccccc23)cc1 | 28.2 µM [falling, single point] | 35.5 µM [falling, single point] |
| CC1OC(Nc2ccc(N=Nc3ccccc3)cc2)C(O)C(O)C1O (configuration not stated) | 1.58 µM [falling, full curve] |  |
| CCOc1ccc(CNC(=O)C(CC)n2nc(C)n3c(cc4occc43)c2=O)cc1OC (configuration not stated) |  | 14.1 µM [rising, partial curve, poor fit] |

| SMILES | AC50 [1] | AC50 [2] |
| --- | --- | --- |
| Cc1cccn2c(N)c(-c3ccccc3)nc12 | 14.1 µM [rising, single point] |  |
| NS(=O)(=O)c1cccc(NC(=O)COC(=O)/C(=C/c2cccs2)c2cccs2)c1 |  | 22.4 µM [rising, single point] |
| O=C(C(c1ccccc1)c1ccccc1)N1CCN(Cc2ccc(Br)cc2)CC1 |  | 15.8 µM [rising, single point] |
| COc1ccccc1-c1nnc(SCC(=O)NCc2c(C)c(Cl)cc(C(C)C)c2O)o1 |  | 14.1 µM [rising, single point] |
| Cc1nn(-c2ccccc2)c(Cl)c1CN(C(=O)CCl)c1cccc2ccccc12 | 35.5 µM [falling, single point] | 35.5 µM [falling, single point] |
| COc1ccc(N2CCc3c(C)nc4c(OC)cccc4c32)cc1 |  | 22.4 µM [rising, partial curve, poor fit] |
| O=S(=O)(c1ccc2c(c1)OCCO2)N1CCC(c2nc3ccc(Cl)cc3[nH]2)CC1 |  | 28.2 µM [rising, single point] |
| Cc1[nH]c2ccccc2c1-c1ccc(Cl)nn1 | 10 µM [falling, partial curve] | 7.08 µM [falling, partial curve] |
| Cc1cccc2nc(CSc3nc4[nH]ncc4c(=O)n3-c3ccccc3Cl)cc(=O)n12 | 0.141 µM [rising, full curve, poor fit] | 31.6 µM [rising, single point] |
| CC(C(=O)N1c2ccccc2CCc2ccccc21)n1nnc(-c2ccc(N(C)C)cc2)n1 (configuration not stated) |  | 11.2 µM [rising, partial curve, poor fit] |
| CCOC(=O)[C@H](CCc1ccccc1)N[C@@H](C)C(=O)N1CCC[C@H]1C(=O)O | 0.00316 µM [falling, full curve, poor fit] | 3.16 µM [falling, single point] and 22.4 nM [falling, full curve, poor fit] |
| CCn1c(=O)cc(SCC(=O)NCc2ccc(Cl)cc2)c2ccccc21 |  | 12.6 µM [rising, partial curve, poor fit] |
| CCC(c1nnnn1C1CCCC1)N1CCN(c2cccc(OC)c2)CC1 (configuration not stated) | 4.47 µM [falling, full curve, poor fit] |  |
| COc1ccccc1CCC(=O)Nc1nc2ccccc2[nH]1 |  | 35.5 µM [rising, single point] |
| O=C(c1ccc(S(=O)(=O)N2CCCCC2)cc1)N1CCN(Cc2ccc3c(c2)OCO3)CC1 | 6.31 µM [rising, full curve, poor fit] | 12.6 µM [rising, partial curve] |
| C=CCc1cccc([C@@H]2[C@@H](C)CC[C@H]3C(=O)N4[C@@H](c5cc(OC)c(OC)c(OC)c5)c5[nH]c6ccccc6c5C[C@H]4C(=O)N23)c1 | 35.5 µM [falling, single point] | 35.5 µM [falling, single point] |
| Cc1c(O)nc(SCC(=O)Nc2ccc3c4c(cccc24)CC3)n(-c2ccccc2)c1=O | 14.1 µM [rising, partial curve] | 22.4 µM [rising, partial curve, poor fit] |
| COc1ccc(CCN(C)c2ncnc3sccc23)cc1OC |  | 12.6 µM [rising, single point] |
| COc1ccc(S(=O)(=O)Nc2ccc(F)c(F)c2)cc1Cl |  | 11.2 µM [rising, partial curve] |
| Cc1ccccc1-c1nc(CN2CCC(C(=O)NCC3CCCO3)CC2)c(C)o1 (configuration not stated) | 14.1 µM [rising, single point] |  |
| CC1CCN(S(=O)(=O)c2ccc3c(ccc(=O)n3CC(=O)NCc3ccccc3Cl)c2)CC1 | 35.5 µM [falling, single point] | 35.5 µM [falling, single point] |
| CC(=O)c1c(C)nc2sc3c(=N)n(N)cnc3c2c1-c1ccc(Cl)cc1 |  | 3.16 µM [rising, single point] |
| O=C(Cn1cnc2c(nnn2-c2ccc(F)cc2)c1=O)N1CCCc2ccccc21 | 15.8 µM [rising, single point] |  |
| Cc1ccc(Cl)cc1N1CCN(c2cccc[n+]2C)CC1 |  | 11.2 µM [rising, partial curve, poor fit] |
| CCOC(=O)c1[nH]c(C)c(CCC(=O)Nc2ccccc2C(=O)OC)c1C |  | 3.55 µM [rising, partial curve, poor fit] |
| Cc1ccc(C2CCN(C(=O)Nc3ccc(Cl)c(Cl)c3)C2)cc1 (configuration not stated) |  | 15.8 µM [rising, single point] |
| O=C1NC(=O)/C(=C\c2ccccc2Oc2ccc(F)c(F)c2)S1 | 11.2 µM [rising, partial curve] | 12.6 µM [rising, partial curve] |

From PubChem BioAssay AID1487 (National Center for Advancing Translational Sciences (NCATS), 2009)
